Laboratory results reported in patent US5955576A, “Inhibitors of thrombosis” (Corvas International, Inc., priority 1995, dated 1999).

The chains behind the UniProt entries cited, without tags or fusion partners. Residues count along the entry.
UniProt P00742, 235-488 limits assumed: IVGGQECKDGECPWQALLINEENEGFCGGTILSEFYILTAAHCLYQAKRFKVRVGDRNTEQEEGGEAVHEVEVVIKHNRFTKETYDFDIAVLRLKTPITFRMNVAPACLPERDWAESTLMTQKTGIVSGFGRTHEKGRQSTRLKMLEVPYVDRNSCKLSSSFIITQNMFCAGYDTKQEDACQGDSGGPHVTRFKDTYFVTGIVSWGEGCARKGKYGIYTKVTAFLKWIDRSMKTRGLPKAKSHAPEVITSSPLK
UniProt P00742, 41-179 partner limits assumed: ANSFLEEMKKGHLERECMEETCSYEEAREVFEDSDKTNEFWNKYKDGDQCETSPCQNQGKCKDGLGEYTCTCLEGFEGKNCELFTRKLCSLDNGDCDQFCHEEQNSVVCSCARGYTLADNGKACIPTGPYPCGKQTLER
UniProt P00747, 581-810 limits assumed: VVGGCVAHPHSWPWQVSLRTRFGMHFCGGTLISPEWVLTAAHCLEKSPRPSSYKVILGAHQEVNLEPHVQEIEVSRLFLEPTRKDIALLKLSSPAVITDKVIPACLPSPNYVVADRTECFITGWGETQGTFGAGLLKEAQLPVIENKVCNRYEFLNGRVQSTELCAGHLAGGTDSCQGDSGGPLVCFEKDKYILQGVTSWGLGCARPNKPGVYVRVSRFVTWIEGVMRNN
UniProt P00747, 97-580 partner limits assumed: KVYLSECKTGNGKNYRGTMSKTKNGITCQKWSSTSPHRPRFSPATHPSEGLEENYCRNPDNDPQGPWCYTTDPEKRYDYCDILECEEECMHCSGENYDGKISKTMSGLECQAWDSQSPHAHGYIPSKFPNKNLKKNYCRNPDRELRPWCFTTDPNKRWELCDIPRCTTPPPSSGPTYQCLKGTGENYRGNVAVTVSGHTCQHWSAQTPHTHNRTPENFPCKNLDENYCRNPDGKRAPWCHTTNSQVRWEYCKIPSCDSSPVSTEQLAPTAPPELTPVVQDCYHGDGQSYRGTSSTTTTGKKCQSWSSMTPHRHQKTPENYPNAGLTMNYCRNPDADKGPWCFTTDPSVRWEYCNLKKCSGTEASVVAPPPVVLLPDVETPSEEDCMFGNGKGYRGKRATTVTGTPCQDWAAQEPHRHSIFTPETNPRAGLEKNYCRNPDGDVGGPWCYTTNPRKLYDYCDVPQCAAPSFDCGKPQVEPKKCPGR

Tests used:
[1] = target: factor Xa (Homo sapiens, UniProt P00742); experiment: Factor Xa assay, chromogenic substrate S2765; settings: read-out: IC50 FXa; purified human enzyme, 30 minute incubation, HBSA pH 7.5
[2] = target: plasmin (Homo sapiens, UniProt P00747); experiment: Plasmin assay, chromogenic substrate S-2251; assay type: biochemical; settings: read-out: IC50 Plasmin; purified human enzyme, 30 minute incubation, HBSA pH 7.5

## N=C(N)NCCC[C@@H](C=O)NC(=O)[C@@H]1CCCN1C(=O)[C@H](Cc1nnn[nH]1)NC(=O)CCC1CCCCC1
[1]
  IC50: 0.017 µM
[2]
  IC50: 0.048 µM

Structures were worked out from names or drawings and are uncertain.
